Measured values published in patent US8003598 (dated 2011).
Non-standard residues stand in square brackets, D forms with d. Met(O) = CS(=O)CC[C@H](N)C(=O)O

Test: general procedure: Fmoc solid-phase peptide synthesis; HBTU, HOBt and NMM
Conditions: whole synthesis, RP-HPLC profile

**Q.** With “cyclo(G[Met(O)][Met(O)]CVTHCNG) (cysteine pairing not given here)” as the substance, how does the “final HPLC purity” value read?
**A.** 99%
